Percent effect of library compounds

By UniProt entry, the sequences of proteins in these tests, tags left out.
UniProt P9WNZ1, whole entry: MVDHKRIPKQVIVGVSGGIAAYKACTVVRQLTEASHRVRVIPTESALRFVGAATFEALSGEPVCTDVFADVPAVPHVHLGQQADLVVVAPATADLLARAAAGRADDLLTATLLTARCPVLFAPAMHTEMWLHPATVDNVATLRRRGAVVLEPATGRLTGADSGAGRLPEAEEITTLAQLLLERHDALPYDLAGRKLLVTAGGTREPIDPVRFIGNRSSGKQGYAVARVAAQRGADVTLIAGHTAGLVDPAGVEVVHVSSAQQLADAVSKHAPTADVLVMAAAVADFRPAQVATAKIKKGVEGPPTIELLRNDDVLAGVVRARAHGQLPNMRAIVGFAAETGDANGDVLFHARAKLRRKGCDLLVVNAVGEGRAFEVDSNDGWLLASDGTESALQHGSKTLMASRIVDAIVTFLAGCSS
UniProt P9WFT3, whole entry: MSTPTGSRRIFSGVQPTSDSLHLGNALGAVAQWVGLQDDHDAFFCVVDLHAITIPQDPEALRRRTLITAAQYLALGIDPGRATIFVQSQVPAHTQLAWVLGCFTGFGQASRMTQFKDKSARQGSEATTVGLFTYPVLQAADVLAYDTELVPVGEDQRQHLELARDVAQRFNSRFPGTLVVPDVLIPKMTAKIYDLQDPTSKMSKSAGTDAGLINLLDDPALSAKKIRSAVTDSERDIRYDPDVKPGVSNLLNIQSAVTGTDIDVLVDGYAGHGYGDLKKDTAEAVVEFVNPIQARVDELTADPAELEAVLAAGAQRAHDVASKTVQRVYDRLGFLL

Source: ChEMBL document CHEMBL3988442, “University of Dundee, Small-Polar-MMV Screening Library” (2021).

CoaBC: 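Coenzyme A biosynthesis protein CoaBC, Mycobacterium tuberculosis (UniProt P9WNZ1). Enzyme assay of CoaBC with a phosphate dye (Biomol Green) read at 650 nm. Concentration: 30 µM. Higher reads as stronger inhibition, judged from the few compounds that gave an IC50. Most strong results did not repeat in a second test. About 67,000 compounds were tested under these conditions; 0.06% (about 40) showed 50% or more at least once.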
MtTrpRS: 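Tryptophan-tRNA ligase, Mycobacterium tuberculosis (UniProt P9WFT3). Enzyme assay of tryptophanyl-tRNA synthetase; the read-out is not stated. Concentration: 10 µM. Higher most likely means stronger inhibition; the record gives no direction and few retests gave an IC50. Size under these conditions: about 65,000 compounds, about 64 of them at 50% or above in at least one test.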

Values are the deposited “Percent Effect”, in %.
The controls that fix the scale are not given in the record; negative values are as filed.
This is an unselected part of the compounds tested.
A dash means the value is not listed here; it may have been measured.

| # | SMILES | CoaBC | MtTrpRS |
|---|---|---|---|
| 1 | `CCO[C@@H]1CO[C@@]2(CCCN(C(=O)c3ccc(OC)c(F)c3)C2)C1` | -1.648 | -6.284 |
| 2 | `CC(=O)N1CCC(NS(=O)(=O)c2cccnc2)CC1` | 0.4132 | 3.448 |
| 3 | `CN(C)c1ccc(C(=O)N2CCCCC2CC(N)=O)c(F)c1` (stereo not drawn) | 8.261 | -1.252 |
| 4 | `Cn1ccnc1CCNC(=O)C1CCCN(Cc2cccc(F)c2)C1` (stereo not drawn) | 1.984 | -8.259 |
| 5 | `CCN1CCC(NC(=O)CN2CCCC2Cn2cc(C)cn2)CC1` (stereo not drawn) | -0.8906 | -0.3834 |
| 6 | `COc1cc(CNC(=O)Nc2cc(C(F)(F)F)c[nH]c2=O)ccn1` | 2.66 | 4.088 |
| 7 | `O=C1CNCC(C(=O)N2CC(Oc3ccccc3Cl)C2)N1` (stereo not drawn) | - | -4.334 |
| 8 | `CCc1cc(N2CCC(NC3CN4CCC3CC4)CC2)nc(N(C)C)n1` (stereo not drawn) | 11.54 | -1.142 |
| 9 | `CN1CCC(N(C)C[C@H]2CC[C@@H](Cc3cccc(CO)c3)O2)CC1` | -10.44 | 8.462 |
| 10 | `CC(=O)N1CCN(CC(=O)N2CCN(c3cccc(C)c3)CC2)CC1` | -0.6061 | -1.077 |
| 11 | `Cc1nc(NC(=O)COCC2CC2)ccc1Br` | -4.781 | -5.062 |
| 12 | `CC(C)c1cncnc1N1CC[C@H](N2CCOCC2)[C@H](CCCO)C1` | 5.804 | -6.502 |
| 13 | `Cc1nc(CNC(=O)CC2C(=O)NCCN2Cc2ccccc2C)n[nH]1` (stereo not drawn) | 7.592 | 4.124 |
| 14 | `CCN1CC(C(=O)N(C)Cc2ccon2)CC1=O` (stereo not drawn) | -10.13 | -0.3353 |
| 15 | `Cc1nnc(CN2CCC(c3nc4cc(Cl)ccc4o3)CC2)n1C` | 3.215 | 7.241 |
| 16 | `CCn1ccc(-c2cc(NCCCOc3ccccc3C)nc(C)n2)n1` | 9.324 | 0.7026 |
| 17 | `Cc1cc(N)cc(C2CN(Cc3cc[nH]n3)CCO2)n1` (stereo not drawn) | 4.833 | - |
| 18 | `O=C(c1cnc2ccc(Cl)cc2c1NCc1ccco1)N1CCCCC1` | -0.2358 | -0.4619 |
| 19 | `CC(C)Oc1ccc(NCc2ccc([S+](C)[O-])cc2)c(F)c1` (stereo not drawn) | 1.603 | 11.02 |
| 20 | `CN(CCc1ccccc1)C(=O)c1cc(CN2CCC(O)CC2)on1` | 12.14 | -3.119 |
| 21 | `O=C(C1CN(c2ncc(F)cn2)CC12CCOCC2)N1CC=CC1` (stereo not drawn) | 3.75 | -4.866 |
| 22 | `O=C(CCCn1cncn1)NC1CCc2nccn2C1` (stereo not drawn) | 0.6386 | 1.394 |
| 23 | `CCc1cc(N(C)CCc2noc(C)n2)nc(N2CCOCC2)n1` | 5.61 | -1.188 |
| 24 | `Cc1nc(C)n(CC2CN(CCCOc3ccccc3C)CCO2)n1` (stereo not drawn) | 5.085 | 0.08446 |
| 25 | `c1ccc(CN2CCc3c(CNc4nccs4)n[nH]c3C2)nc1` | 5.013 | 3.043 |
| 26 | `CCc1ncc(C(=O)N2CCCCC2Cn2cccn2)s1` (stereo not drawn) | 8.769 | -2.818 |
| 27 | `COCC1c2nnn(CC3CC3)c2CCN1C(=O)c1cccc(F)c1` (stereo not drawn) | 3.084 | 2.012 |
| 28 | `CC(C)n1cc(S(=O)(=O)N2CCCC(N3CCCCC3)C2)cn1` (stereo not drawn) | 0.5089 | 5.033 |
| 29 | `CCc1nc(C)c(C(=O)N2C[C@H]3CC[C@@H]2CN(S(=O)(=O)N(C)C)C3)s1` | -4.018 | -2.487 |
| 30 | `CN(CCc1ccccc1)Cc1c(C2CC2)[nH]c2ncccc12` | -4.439 | -8.707 |
| 31 | `CCOCCc1nc(CCc2ccccc2)n[nH]1` | 8.037 | 4.717 |
| 32 | `CC[C@H]1CN(C(=O)c2cccnc2)CC[C@H]1CC(=O)NCCOC` | 6.998 | -2.636 |
| 33 | `NC(=O)C(NC(=O)Cc1cnn(-c2ccccc2)n1)c1ccccc1` (stereo not drawn) | 5.134 | -1.341 |
| 34 | `O=c1c(CN2CCCCC2)coc2ccc(Cl)cc12` | 2.331 | -0.5757 |
| 35 | `COC1CCN(S(=O)(=O)N2CC[C@@](O)(C3CCC3)[C@H](C)C2)CC1` | -4.294 | -1.398 |
| 36 | `O=C(NC[C@H]1OC[C@@H]2CN(Cc3ccco3)CC[C@@H]21)c1cscn1` | 8.239 | 3.239 |
| 37 | `CC(=O)N1CCN(C(=O)NC(C)Cn2ccnc2)CC1` (stereo not drawn) | -4.459 | -7.669 |
| 38 | `O=C(NCCc1cnccn1)c1cccc(S(=O)(=O)NC2CCOC2)c1` (stereo not drawn) | -6.157 | -0.2513 |
| 39 | `CCC(=O)NCC(=O)Nc1c(C)cnn1Cc1cc(F)ccc1F` | 2.583 | -6.033 |
| 40 | `O=C1CCC2(CCN(Cc3ccc(F)cc3Cl)CC2)CN1CCO` | 3.599 | 0.8892 |
| 41 | `O=C1CC(c2ccncc2)C2(CCN(CC3CC3)CC2)N1` (stereo not drawn) | 4.809 | 14.45 |
| 42 | `N[C@@H]1CC[C@@H](NC(=O)c2ccccc2OC(F)(F)C(F)F)C1` | -1.935 | 14.35 |
| 43 | `CC(C)c1noc(CCNC(=O)N2CCC(O)(C(F)(F)F)C2)n1` (stereo not drawn) | 3.435 | -3.712 |
| 44 | `O=c1cc(Cn2cncn2)nc2n1CCCN(Cc1ccc(F)cc1)C2` | 4.883 | -3.601 |
| 45 | `FC(F)(F)c1csc(N2CCN(Cc3ccccn3)CC2)n1` | 4.531 | 1.06 |
| 46 | `Cc1nnc(N2C[C@H](Oc3ccccn3)[C@H]3OCCC[C@H]32)s1` | 4.912 | 2.517 |
| 47 | `CN1CCC(CNC(=O)c2cccc(C(F)(F)F)c2)c2ccccc21` (stereo not drawn) | -41.76 | -2.618 |
| 48 | `COCC1CN(C(=O)CC2Cc3ccccc3C2)Cc2c1cnn2C` (stereo not drawn) | 2.349 | -0.6823 |
| 49 | `CC(Cn1cccn1)NC(=O)N1CCN(Cc2cccs2)CC1` (stereo not drawn) | 5.085 | 0.5912 |
| 50 | `Cc1cnn(C2CCCN(C(=O)c3ccc(Cn4ccnc4)cc3)C2)c1` (stereo not drawn) | 6.832 | 16.8 |
| 51 | `CN(C)CCN1CCCC12CCN(C(=O)c1ccncc1)CC2` | 13.88 | -1.824 |
| 52 | `Cc1cnn(CC2CN(CC(=O)N(C)Cc3cnn(C)c3)CCO2)c1` (stereo not drawn) | 5.483 | 3.874 |
| 53 | `Oc1cc(C2CCCCN2Cc2cccs2)nc(-c2ccccn2)n1` (stereo not drawn) | 7.022 | -2.154 |
| 54 | `CN1C[C@]2(CC[C@@H](C(=O)N3CCOCC3)CC2)Oc2ccccc2C1=O` | -18.64 | -2.154 |
| 55 | `CN(CCO)CC1COCCN1C(=O)CCC1CCCC1` (stereo not drawn) | -1.908 | -0.5939 |
| 56 | `Cc1c[nH]c(CN2CCC3(CCCN(Cc4ccc(F)c(F)c4)C3)C2)n1` (stereo not drawn) | -16.33 | 2.22 |
| 57 | `O=C(Nc1ccccc1OC(F)F)C1=NN(c2ccccc2)C(=O)CN1` | -6.427 | -0.07868 |

The last 5 entries again:

- Oc1cc(C2CCCCN2Cc2cccs2)nc(-c2ccccn2)n1 (stereo not drawn) : CoaBC: 7.022%; MtTrpRS: -2.154%
- CN1C[C@]2(CC[C@@H](C(=O)N3CCOCC3)CC2)Oc2ccccc2C1=O : CoaBC: -18.64%; MtTrpRS: -2.154%
- CN(CCO)CC1COCCN1C(=O)CCC1CCCC1 (stereo not drawn) : CoaBC: -1.908%; MtTrpRS: -0.5939%
- Cc1c[nH]c(CN2CCC3(CCCN(Cc4ccc(F)c(F)c4)C3)C2)n1 (stereo not drawn) : CoaBC: -16.33%; MtTrpRS: 2.22%
- O=C(Nc1ccccc1OC(F)F)C1=NN(c2ccccc2)C(=O)CN1 : CoaBC: -6.427%; MtTrpRS: -0.07868%